The values that follow come from the supplement of paper PMC6414424.

Each structure is given as a SMILES string. ± gives the standard deviation of the averaged measurements. Some of the results follow.

This assay has as its system APPdp1-6 iPSC-derived neurons. Kind of assay: pThr231Tau/total Tau ratio Z-score vs DMSO vehicle wells; higher = more pThr231Tau relative to total Tau. The following applies: 5 µM; treatment time 5 days.
Consider `CC(=O)Nc1cc([As](=O)(O)O)ccc1O`, for which the “pThr231Tau/total Tau ratio Z-score” value came to 1.52 ± 2.3. Consider `CC(=O)[O][Hg][c]1ccccc1` [PHENYLMERCURIC ACETATE    Therap cat:  fungicide], for which the “pThr231Tau/total Tau ratio Z-score” value is -4.44 ± 0.27. As for `O=c1[nH]c2ccccc2n1C1CCN(CCCC(c2ccc(F)cc2)c2ccc(F)cc2)CC1` [Prestw-308], the “pThr231Tau/total Tau ratio Z-score” value is -1.01 ± 0.53. The result for `CN1C2CCC1CC(OC(=O)C(CO)c1ccccc1)C2` (stereo not drawn) [Prestw-565] reads -0.23 ± 0.46. The result for `C#CCN(C)[C@H](C)Cc1ccccc1` [Prestw-552] reads 0.307 ± 1.2. To `CN(C)C(=O)Oc1ccc[n+](C)c1` [Prestw-1322] belongs 0.0832 ± 1.3; to `C[C@@H]1O[C@@H](O[C@@H]2C=C3CC[C@@H]4[C@H](CC[C@]5(C)[C@@H](c6ccc(=O)oc6)CC[C@]45O)[C@@]3(C)CC2)[C@H](O)[C@H](O)[C@H]1O` [Prestw-986], -1 ± 2.8. As for `C[C@@H]1O[C@@H](O[C@@H]2C=C3CC[C@@H]4[C@H](CC[C@]5(C)[C@@H](c6ccc(=O)oc6)CC[C@]45O)[C@@]3(C)CC2)[C@H](O)[C@H](O)[C@H]1O` [PROSCILLARIDIN, cardiotonic], the “pThr231Tau/total Tau ratio Z-score” value was -4.14 ± 2.2. To `NCCCNCCSP(=O)(O)O` [Prestw-1489] belongs -0.685 ± 0.83; to `COP(=S)(OC)Oc1cc(Cl)c(Cl)cc1Cl` [RONNEL, insecticide], 0.896 ± 1.9. The result for `NCCC(O)C(=O)NC1CC(N)C(OC2OC(CN)C(O)[C@H](O)[C@@H]2N)[C@H](OC2O[C@H](CO)[C@@H](O)[C@@H]2O)[C@@H]1O` (stereo partly drawn) [Prestw-650] reads 1.84 ± 1.1. For `Nc1ccc([As](=O)(O)O)cc1` [ARSANILIC ACID, antibacterial], the “pThr231Tau/total Tau ratio Z-score” value is 0.153 ± 0.8. To `CC(C)C[C@H]1C(=O)N2CCC[C@H]2[C@]2(O)O[C@](NC(=O)[C@@H]3C=C4c5cccc6[nH]c(Br)c(c56)C[C@H]4N(C)C3)(C(C)C)C(=O)N12` [Prestw-121] belongs -1.15 ± 0.53. To `CNCC(O)c1ccc(O)cc1` (stereo not drawn) [Prestw-1088] belongs 0.973 ± 0.82. As to `CN1C2CC(OC(=O)C(CO)c3ccccc3)CC1C1OC12` (stereo not drawn) [Prestw-877], the “pThr231Tau/total Tau ratio Z-score” value was -0.393 ± 0.23. To `CCC1=C[C@H]2CN3CCc4c([nH]c5ccccc45)[C@](C(=O)OC)(C2)[C@H]13` [Prestw-187] belongs -0.174 ± 0.24. The result for `CNC(C)(C)Cc1ccccc1` [Prestw-726] reads -0.472 ± 1.4. The result for `CCOP(=S)(OCC)Oc1cc(C)nc(C(C)C)n1` [DIAZINON    Use: insecticide, cholinesterase inhibitor] reads 1.99 ± 2.6; that for `C[C@]12CCC(=O)C(O)=C1CC[C@@H]1[C@@H]2CC[C@]2(C)C(=O)CC[C@@H]12`, 0.227 ± 0.0081; that for `C[C@]12CCC(=O)C(O)=C1CC[C@@H]1[C@@H]2CC[C@]2(C)C(=O)CC[C@@H]12` [Prestw-1420], -0.0663 ± 0.21.

In the case of `CNC(=O)Oc1ccc2c(c1)[C@]1(C)CCN(C)[C@@H]1N2C` [Prestw-566], the “pThr231Tau/total Tau ratio Z-score” value is -0.236 ± 0.57.

Consider `CN(C)C(=O)Oc1cccc([N+](C)(C)C)c1` [Prestw-468], for which the “pThr231Tau/total Tau ratio Z-score” value is -0.349 ± 0.29. With `COc1ccc(C(CN(C)C)C2(O)CCCCC2)cc1` (stereo not drawn) [Prestw-1170], the “pThr231Tau/total Tau ratio Z-score” value is -0.663 ± 0.15.

Take `C[C@H](N)[C@H](O)c1ccccc1` [Prestw-324]: the “pThr231Tau/total Tau ratio Z-score” value was -0.214 ± 1.6. As to `CCNCC(O)c1cccc(O)c1` (stereo not drawn) [Prestw-1017], the “pThr231Tau/total Tau ratio Z-score” value stood at 2.14 ± 0.9.

In the case of `CN1CCc2cc3c(cc2C1O)OCO3` (stereo not drawn), the “pThr231Tau/total Tau ratio Z-score” value was determined as 0.547 ± 0.52. The result for `CC(C)(N)Cc1ccccc1` [Prestw-1308] reads 0.892 ± 1.6; that for `CC(=O)[C@H]1CC[C@H]2[C@@H]3CC[C@H]4C[C@H](O)CC[C@]4(C)[C@H]3C(=O)C[C@]12C` [Prestw-1002], 0.428 ± 0.17.

Regarding `C=C1C[C@@H]2[C@H](CC[C@]3(C)C(=O)CC[C@@H]23)[C@@]2(C)C=CC(=O)C=C12` [Prestw-1410], the “pThr231Tau/total Tau ratio Z-score” value amounted to 1.23 ± 1. To `COP(=S)(OC)Oc1ccc(Sc2ccc(OP(=S)(OC)OC)cc2)cc1` [TEMEPHOS    Use: insecticide] belongs 1.01 ± 2.2; to `CCOP(=S)(OCC)Oc1nc(Cl)c(Cl)cc1Cl` [CHLORPYRIFOS    (DURSBAN)    Use: insecticide], 0.432 ± 0.42; to `CCCCCCCCCCCCCCCC[n+]1ccccc1`, -3.18 ± 0.42. Take `N[C@H]1C[C@@H]1c1ccccc1` [Prestw-173]: the “pThr231Tau/total Tau ratio Z-score” value turned out to be 0.488 ± 0.73. To `CC(=O)NC1CCSC1=O` (stereo not drawn) [Prestw-644] belongs 0.517 ± 1.4. For `CNC(=O)Oc1ccccc1OC(C)C` [PROPOXUR    Use: insecticide], the “pThr231Tau/total Tau ratio Z-score” value was -0.242 ± 0.49.

On to `C[C@]12COC(=O)C[C@@H]1CC[C@@H]1[C@@H]2CC[C@@]2(C)[C@H]1CC[C@]2(C)O` [Prestw-1192], for which the “pThr231Tau/total Tau ratio Z-score” value is 1.31 ± 0.12. Take `O=P1(N(CCCl)CCCl)NCCCO1` (stereo not drawn) [Prestw-1481]: the “pThr231Tau/total Tau ratio Z-score” value is 3.27 ± 1.5. As to `c1ccc2c(c1)sc1ccccc12` [DIBENZOTHIOPHENE    Therap cat:  keratolytic], the “pThr231Tau/total Tau ratio Z-score” value was determined as 2.14 ± 2.4. With `CN(C)[C@@H]1C(=O)C(C(N)=O)=C(O)[C@@]2(O)C(=O)C3=C(O)c4c(O)cccc4[C@@](C)(O)[C@H]3[C@H](O)[C@@H]12` [Prestw-307], the “pThr231Tau/total Tau ratio Z-score” value worked out at 0.18 ± 0.99. To `CN1C(=O)CCS(=O)(=O)C1c1ccc(Cl)cc1` (stereo not drawn) [Prestw-336] belongs 0.227 ± 0.13; to `C[C@@H]1CN([C@H]2CC[C@](C#N)(c3ccc(F)cc3)CC2)CC[C@]1(C(=O)O)c1ccccc1` [Prestw-1039], -0.325 ± 0.87. For the molecule `C=CCC1(CC(C)C)C(=O)NC(=O)NC1=O` [Prestw-1251], the “pThr231Tau/total Tau ratio Z-score” value stood at 1.83 ± 0.51.

`CCC1(CC)C(=O)NC(=O)NC1=O`: the “pThr231Tau/total Tau ratio Z-score” value was 0.156 ± 1.7. Turning to `O=C1CCO1` [BETA-PROPIOLACTONE    Therap cat: antiseptic], the “pThr231Tau/total Tau ratio Z-score” value is 0.937 ± 0.93. To `O=C(CCCN1CCC(n2c(=O)[nH]c3ccccc32)CC1)c1ccc(F)cc1` [Prestw-484] belongs -0.64 ± 0.84; to `CCC(=O)O[C@H]1CC[C@H]2[C@@H]3CCC4=CC(=O)CC[C@]4(C)[C@H]3CC[C@]12C` [Prestw-401], 0.504 ± 0.79; to `COc1cccc([C@@]2(O)CCCC[C@@H]2CN(C)C)c1` [Prestw-1465], -0.00259 ± 0.6. `CNC(=O)Oc1cccc2c1OC(C)(C)C2`: the “pThr231Tau/total Tau ratio Z-score” value is 1.93 ± 1.6.

For the molecule `CCC1(C)CC(=O)NC(=O)C1` [Prestw-882], the “pThr231Tau/total Tau ratio Z-score” value is -0.735 ± 0.96. To `COC(C)(C)CCC[C@H](C)C/C=C/C(C)=C/C(=O)OC(C)C` belongs 0.371 ± 0.78; to `CCCC(C)(COC(N)=O)COC(=O)NC(C)C` (stereo not drawn) [Prestw-423], 0.593 ± 0.86. On to `Oc1ccc(Cl)cc1Cc1cc(Cl)ccc1O` [DICHLOROPHENE    Therap cat:  Anthelmintic (Cestotodes)], for which the “pThr231Tau/total Tau ratio Z-score” value was -3.54 ± 0.048. To `OC(c1ccccc1)(c1ccccc1)C1CCNCC1` [Prestw-93] belongs -0.513 ± 0.61.
